# Experimental data: the supplement of paper PMC3334620
# The full ranking holds about 33,000 sequences; the median of “E-score (-0.5 to 0.5)” is about -0.0014, and the highest 2% start at about 0.25. The list shows a part of the results.
# Biological target: T1, Cad1 (UniProt P24813)
# T1 sequence: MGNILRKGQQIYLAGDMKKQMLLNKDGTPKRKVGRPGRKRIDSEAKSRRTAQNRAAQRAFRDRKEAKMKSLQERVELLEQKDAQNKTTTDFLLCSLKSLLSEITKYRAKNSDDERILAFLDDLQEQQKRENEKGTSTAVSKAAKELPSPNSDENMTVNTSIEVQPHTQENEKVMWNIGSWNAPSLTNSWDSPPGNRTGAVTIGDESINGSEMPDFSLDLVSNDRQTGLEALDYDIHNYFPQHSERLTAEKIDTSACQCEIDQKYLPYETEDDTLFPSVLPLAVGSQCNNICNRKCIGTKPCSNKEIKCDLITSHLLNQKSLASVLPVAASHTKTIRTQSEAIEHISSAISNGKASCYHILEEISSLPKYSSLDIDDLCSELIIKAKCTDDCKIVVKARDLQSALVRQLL
# Assay: PBM E-score (8-mer binding enrichment) (E-score (-0.5 to 0.5)); higher = stronger / more preferred TF binding
# Conditions: protein concentration: 100 nM; construct: GST-full length
# In short: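 PURExpress in vitro transcription/translation supplied GST-tagged yeast transcription factors, either full-length or DNA-binding domain. Applied at about 100-200 nM to universal all-10-mer Agilent arrays double-stranded by primer extension, the bound protein was detected with fluorescent anti-GST. E-scores, modified Wilcoxon-Mann-Whitney statistics, were given by the Universal PBM Analysis Suite to ungapped eight-base words pooled with their reverse complements after masliner normalisation.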
row,Sequence,PBM E-score
1,TGGTTGAA,-0.0127
2,ATGATCCC,-0.102
3,CACCGAAG,0.0732
4,CGTAACAG,0.0559
5,ACGGGGAG,-0.251
6,ATTCAAAG,-0.0586
7,CGCGGGTC,0.17
8,ATCCTACA,-0.12
9,CGCAAGGC,0.0568
10,CGGAGCAC,-0.0863
11,ATCATGCG,-0.089
12,AACTCCGC,-0.0222
13,CAGACCTA,0.0967
14,CAACGACA,0.064
15,CCTTAGTA,0.0752
16,GGGTAAAC,0.0753
17,GAACAGTA,0.114
18,ACCAGGGT,-0.266
19,CAGAATGG,-0.00601
20,ACCTTGAG,0.0462
21,CCGGCCCC,-0.302
22,GTTATACA,0.171
23,GTGAATCA,-0.00155
24,AACTGTAC,-0.0792
25,AAATGTGT,0.214

row,Sequence,PBM E-score
1,AGACGTCT,-0.084
2,AGCGAATA,0.0477
3,TCAATGCA,-0.0451
4,CTGATGTA,0.115
5,CGCACTGC,0.0981
6,AAATTTAC,0.233
7,GAAAAACC,0.0979
8,CTCGGTGC,0.113
9,AGCTCAGC,0.00713
10,AACCATCG,0.109
11,ACGCAGGG,-0.155
12,AAGCGGGG,-0.0862
13,CGTTTAAG,0.0242
14,TACGCCGA,-0.118
15,CACAGCTG,-0.0457
16,CTCACGGC,-0.118
17,ATTGTACC,0.163
18,GGTACCGA,-0.222
19,CAGTTAGG,0.0986
20,AGTCTTAG,-0.192
21,AAATAGGG,0.143
22,GGCACTTA,0.00656
23,AACACGCG,0.131
24,AGCGTAAA,0.0495
25,ATGCTAAA,0.0771

row,Sequence,PBM E-score
1,CAAAAATC,0.0761
2,CCACAGCA,0.109
3,CATCTTGC,0.0589
4,ACCGCAAT,0.125
5,GGAGCACA,-0.0636
6,AGCGCTCC,0.114
7,ATGGTGTA,0.0489
8,GGTGCGTA,-0.0216
9,AAAATTTG,0.196
10,CATATGCC,0.121
11,GCGGATCA,0.182
12,TCTCACCA,0.0644
13,AGATAACT,0.0425
14,ATTTGCCA,-0.0587
15,CGACAGGC,-0.0127
16,ACGGGTAG,-0.138
17,ACCTCCAG,-0.128
18,GTAATTCA,0.214
19,GCCATGAC,-0.00687
20,AAAAGCGT,-0.0001
21,AAGCTATC,0.136
22,ATGTACGA,-0.0159
23,CAGGAACG,0.106
24,ATCAGTGC,0.0108
25,CTGAGAGA,-0.0253

row,Sequence,PBM E-score
1,ATGAAGTG,0.0478
2,GTAACCGA,0.172
3,AAACCATC,0.122
4,AACCGACG,0.186
5,CCCCAATA,0.00769
6,GAGTTGGC,-0.105
7,CCGGAAGA,0.00753
8,AGTAAGGC,0.0168
9,CATACGCC,-0.151
10,ACCACGCA,0.0237
11,AGTGACTC,-0.0274
12,AGTTCTAA,0.071
13,AGGACGTG,0.0498
14,GTTCTCGA,0.165
15,AATTAATT,0.285
16,CTAGTGTC,0.0979
17,CTGGATAA,-0.0617
18,ACTTATGA,0.0416
19,GCTTTTTA,-0.0089
20,ACGTGAGA,-0.0525
21,AAAGGTCC,0.0087
22,ACCTTGGA,-0.0359
23,AGAGAGTG,-0.167
24,GTTCGATA,0.182
25,TAAGTCGA,0.148

# Shown bar-delimited: entries from further up.
row | Sequence | PBM E-score
3 | AAACCATC | 0.122
4 | AACCGACG | 0.186
11 | AGTGACTC | -0.0274
12 | AGTTCTAA | 0.071
24 | GTTCGATA | 0.182

# Next part

row,Sequence,PBM E-score
1,ATCCGGGC,-0.0019
2,AATCCCCG,-0.12
3,AGGCCCCC,-0.439
4,ACACCTGG,-0.169
5,CGATGGGA,0.00434
6,GTGTCACA,0.252
7,CCAGGGAA,-0.141
8,TGGGTTAA,-0.0973
9,ACGTTACC,-0.196
10,GGTCAATA,-0.00374
11,ATGGTTCG,0.0935
12,GAAGGTCC,-0.183
13,CACTGTGG,-0.0778
14,GCACATCA,0.0324
15,TAGACTAA,-0.0572
16,AGGAGATG,-0.0209
17,GCAGCAGC,-0.0716
18,ACGTACAG,-0.136
19,ACGACGCG,0.144
20,GTTCCAGA,0.0539
21,ATTCAATC,0.263
22,CGTTGATA,0.204
23,GGGCCAAA,0.0693
24,ACTGCGTC,-0.142
25,ATCGTCGG,-0.0922

row,Sequence,PBM E-score
1,ACTCGTTC,-0.0122
2,CTTGCGAA,0.184
3,ACGGAAAT,0.288
4,GAACGCAA,0.017
5,ACCCAGGT,-0.257
6,AGGTTAGG,0.0523
7,AACAAAAA,0.128
8,TAGCACCA,0.0282
9,GCGAGTCA,-0.0262
10,CGCAACTC,0.211
11,CAAGGCTA,-0.0732
12,ACATCCTA,-0.134
13,CTCGCGCC,-0.0612
14,AGCGACTA,0.0789
15,AATGCGTA,0.0758
16,GTGCGTGA,0.0224
17,ACTCTTTA,-0.108
18,CCAGCGAC,-0.0563
19,CATGCAAC,0.105
20,AAAAGACC,-0.0654
21,AGTATAGG,-0.0461
22,CTAATAAC,0.161
23,CTTGCATC,-0.129
24,ATGCCGCC,-0.0855
25,ACAAGGCC,0.0001

row,Sequence,PBM E-score
1,CTTATACA,0.0612
2,AGCTGGAT,0.0235
3,CTGATTTA,0.0612
4,CTCAAATA,-0.0391
5,GGTAAGAC,-0.0844
6,GAGTGTAC,-0.142
7,GTAGCACA,0.0151
8,ACCAATCC,-0.0543
9,AAACTGGT,-0.0556
10,CCTTGAAC,-0.122
11,GACACTGA,0.0442
12,GGGGTTAA,-0.158
13,CGGACGGA,-0.00744
14,AGAGACAT,-0.145
15,AGTGACGA,0.045
16,CACGTCCG,-0.0398
17,AGAGTTTA,0.155
18,GATCATCC,0.00224
19,ACAATTAG,-0.144
20,CCCGCACC,-0.0643
21,AACCGGAT,0.132
22,ATGTTCCG,0.0267

# A portion taken from the entries so far:
row,Sequence,PBM E-score
12,GGGGTTAA,-0.158
13,CGGACGGA,-0.00744
14,AGAGACAT,-0.145
15,AGTGACGA,0.045
16,CACGTCCG,-0.0398

# A few values from above:
# For PBM E-score, AGTCTTAG shows -0.192
# For PBM E-score, ACTGCGTC shows -0.142
